The target of experiment [1] is p21-actived kinase 6 (PAK6) (UniProt Q9NQU5). Nature of the experiment: co-IP; GC cells exposed to oxaliplatin (Fig. S9a, b); cell line and precipitating antibody not given.
Experiment [2] has the same target. Nature of the experiment: co-IP; as a2 but in MGC-803 cells, untreated (Fig. S7c-e).
Experiment [3] shares this target. The experiment can be described thus: co-IP; as a1 but in MGC-803 cells, treated with oxaliplatin (Fig. S7c-e).
The target is the same in experiment [4]. The experiment can be described thus: co-IP; anti-PAK6 antibody, control and PAK6 overexpression SGC-7901 cells, untreated; cytoplasmic and nuclear extracts; Magnetic Co-IP Kit, 4 °C overnight; blot for p-ATR and p-CHK1.
Experiment [5] shares this target. Nature of the experiment: co-IP; anti-PAK6 antibody, control and PAK6 overexpression SGC-7901 cells treated with oxaliplatin for 24 h; cytoplasmic and nuclear extracts; Magnetic Co-IP Kit, 4 °C overnight; blot for p-ATR and p-CHK1.

Protein sequences, listed by entry. Tags and fused reporters are not part of them.
UniProt Q9NQU5: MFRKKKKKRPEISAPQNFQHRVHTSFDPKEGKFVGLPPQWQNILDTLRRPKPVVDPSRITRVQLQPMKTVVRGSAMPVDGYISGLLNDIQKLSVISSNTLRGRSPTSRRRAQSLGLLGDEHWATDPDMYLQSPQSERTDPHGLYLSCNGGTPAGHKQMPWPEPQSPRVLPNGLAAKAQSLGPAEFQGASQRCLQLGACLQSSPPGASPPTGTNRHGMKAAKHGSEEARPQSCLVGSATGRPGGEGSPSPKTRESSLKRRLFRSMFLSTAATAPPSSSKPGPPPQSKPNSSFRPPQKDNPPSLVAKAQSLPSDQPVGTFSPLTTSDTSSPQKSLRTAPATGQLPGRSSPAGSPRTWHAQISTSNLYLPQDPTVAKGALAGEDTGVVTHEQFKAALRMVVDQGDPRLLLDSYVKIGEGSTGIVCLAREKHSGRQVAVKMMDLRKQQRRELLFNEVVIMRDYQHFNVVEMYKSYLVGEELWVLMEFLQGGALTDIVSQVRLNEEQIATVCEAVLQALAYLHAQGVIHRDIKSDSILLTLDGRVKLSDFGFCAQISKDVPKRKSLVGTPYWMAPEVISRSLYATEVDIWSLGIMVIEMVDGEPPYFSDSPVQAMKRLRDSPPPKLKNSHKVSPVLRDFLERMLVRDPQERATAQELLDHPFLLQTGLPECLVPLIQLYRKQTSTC
UniProt Q06609: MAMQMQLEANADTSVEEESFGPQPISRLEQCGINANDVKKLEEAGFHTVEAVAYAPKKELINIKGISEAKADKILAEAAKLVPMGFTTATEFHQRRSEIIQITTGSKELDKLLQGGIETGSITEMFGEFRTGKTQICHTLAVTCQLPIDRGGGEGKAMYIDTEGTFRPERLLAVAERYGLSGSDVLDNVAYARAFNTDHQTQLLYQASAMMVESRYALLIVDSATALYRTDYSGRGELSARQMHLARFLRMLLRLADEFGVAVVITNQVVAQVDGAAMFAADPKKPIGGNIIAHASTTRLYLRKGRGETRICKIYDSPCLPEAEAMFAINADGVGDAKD
UniProt Q13535: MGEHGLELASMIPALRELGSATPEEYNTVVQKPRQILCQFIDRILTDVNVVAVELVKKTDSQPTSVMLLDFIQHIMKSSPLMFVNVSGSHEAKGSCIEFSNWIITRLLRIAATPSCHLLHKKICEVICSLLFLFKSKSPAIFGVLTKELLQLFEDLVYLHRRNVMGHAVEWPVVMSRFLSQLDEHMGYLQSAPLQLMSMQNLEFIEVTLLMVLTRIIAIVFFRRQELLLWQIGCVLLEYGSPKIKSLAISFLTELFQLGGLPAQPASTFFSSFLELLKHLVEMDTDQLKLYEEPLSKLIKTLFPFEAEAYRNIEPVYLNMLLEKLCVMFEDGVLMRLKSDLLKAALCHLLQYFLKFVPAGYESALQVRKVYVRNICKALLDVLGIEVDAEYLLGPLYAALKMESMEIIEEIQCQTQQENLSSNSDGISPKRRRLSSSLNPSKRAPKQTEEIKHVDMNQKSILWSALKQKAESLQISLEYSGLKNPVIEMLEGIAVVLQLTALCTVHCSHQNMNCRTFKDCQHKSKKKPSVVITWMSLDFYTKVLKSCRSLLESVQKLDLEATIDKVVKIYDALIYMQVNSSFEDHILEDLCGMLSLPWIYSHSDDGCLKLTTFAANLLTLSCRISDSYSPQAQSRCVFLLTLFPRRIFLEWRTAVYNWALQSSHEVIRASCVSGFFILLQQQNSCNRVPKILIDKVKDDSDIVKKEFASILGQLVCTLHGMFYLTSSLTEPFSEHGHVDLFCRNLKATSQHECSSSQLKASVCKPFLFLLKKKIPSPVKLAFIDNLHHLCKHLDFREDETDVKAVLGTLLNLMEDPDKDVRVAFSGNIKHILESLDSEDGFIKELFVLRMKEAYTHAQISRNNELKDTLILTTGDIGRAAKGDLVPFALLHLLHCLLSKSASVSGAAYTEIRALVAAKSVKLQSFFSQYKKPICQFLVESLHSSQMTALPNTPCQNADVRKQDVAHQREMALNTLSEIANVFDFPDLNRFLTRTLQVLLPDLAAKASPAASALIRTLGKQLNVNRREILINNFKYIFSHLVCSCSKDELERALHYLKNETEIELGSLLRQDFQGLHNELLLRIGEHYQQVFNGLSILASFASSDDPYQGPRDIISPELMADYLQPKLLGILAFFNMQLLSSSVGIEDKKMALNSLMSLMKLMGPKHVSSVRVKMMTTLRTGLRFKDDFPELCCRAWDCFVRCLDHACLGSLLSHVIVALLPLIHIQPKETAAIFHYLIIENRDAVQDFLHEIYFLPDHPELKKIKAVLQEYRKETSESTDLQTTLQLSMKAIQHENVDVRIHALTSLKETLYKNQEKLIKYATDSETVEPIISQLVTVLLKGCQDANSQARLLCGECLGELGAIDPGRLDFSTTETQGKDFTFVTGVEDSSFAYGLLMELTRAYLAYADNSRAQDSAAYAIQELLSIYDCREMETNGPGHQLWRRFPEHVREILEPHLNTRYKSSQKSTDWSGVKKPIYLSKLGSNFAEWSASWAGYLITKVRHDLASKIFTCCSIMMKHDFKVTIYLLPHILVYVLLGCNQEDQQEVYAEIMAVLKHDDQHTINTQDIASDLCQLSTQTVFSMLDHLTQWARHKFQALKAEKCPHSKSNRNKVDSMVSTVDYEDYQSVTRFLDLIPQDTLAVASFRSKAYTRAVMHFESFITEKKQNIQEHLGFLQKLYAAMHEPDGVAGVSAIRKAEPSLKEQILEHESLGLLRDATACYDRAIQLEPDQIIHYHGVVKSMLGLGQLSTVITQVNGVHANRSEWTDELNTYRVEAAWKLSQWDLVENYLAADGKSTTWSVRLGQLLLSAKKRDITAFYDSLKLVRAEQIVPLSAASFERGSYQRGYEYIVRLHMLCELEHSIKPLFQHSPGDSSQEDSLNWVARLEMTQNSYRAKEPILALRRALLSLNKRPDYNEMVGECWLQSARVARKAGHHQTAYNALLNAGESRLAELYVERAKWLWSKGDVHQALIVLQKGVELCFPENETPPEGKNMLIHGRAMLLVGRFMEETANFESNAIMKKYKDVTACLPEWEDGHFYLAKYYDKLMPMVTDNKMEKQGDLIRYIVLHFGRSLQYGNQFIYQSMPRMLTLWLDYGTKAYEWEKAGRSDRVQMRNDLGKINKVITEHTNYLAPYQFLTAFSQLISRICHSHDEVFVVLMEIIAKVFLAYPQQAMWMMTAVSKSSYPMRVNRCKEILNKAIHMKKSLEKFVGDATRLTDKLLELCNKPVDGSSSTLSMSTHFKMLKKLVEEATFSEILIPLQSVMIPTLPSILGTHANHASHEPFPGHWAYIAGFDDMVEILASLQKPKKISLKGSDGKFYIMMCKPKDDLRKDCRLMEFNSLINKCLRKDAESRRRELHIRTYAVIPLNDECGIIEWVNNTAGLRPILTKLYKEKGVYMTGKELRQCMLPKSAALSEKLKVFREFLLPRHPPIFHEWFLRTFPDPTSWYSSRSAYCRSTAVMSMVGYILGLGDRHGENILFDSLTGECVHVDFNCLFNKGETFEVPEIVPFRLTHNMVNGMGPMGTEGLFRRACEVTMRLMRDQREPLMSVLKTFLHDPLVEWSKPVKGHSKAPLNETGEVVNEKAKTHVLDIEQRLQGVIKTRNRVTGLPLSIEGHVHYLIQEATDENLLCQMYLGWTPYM

These are yes or no findings as the source states them, for the method shown. In cells and extracts the contact can be indirect. Some results given as binding are weak or reduced against the parent protein; the word gives no strength.

Regarding RAD51 (from UniProt Q06609 1-339), the binding entry in experiment [1] is “binds”.
Regarding “phosphorylated ATR (p-ATR) (from UniProt Q13535 1-2644)”, the binding entry in experiment [2] was “binds weakly”; in experiment [3], “binds”; in experiment [4], “binds weakly”; in experiment [5] it was “binds”.

For the origin of these results see article PMC9334622.
